Results from patent US6329497A (The Scripps Research Institute, priority 1999, dated 2001).

Experiment: general procedure: solution-phase peptide synthesis; EDCI, HOBt, NaHCO3 (chromophore coupling); DCC, DMAP (fragments)

Sandramycin Bis-O-benzyl Ether
conjugation yield (conjugation step): 91%

N-SES-D-Ser[Boc-Gly-Sar-NMe-Val]-Pip-OBn
step yield (coupling step): 79%

Sandramycin
step yield (late stage modification step): 78%
